Measurements reported in PubChem BioAssay AID504791 (Drosophila RNAi Screening Center, 2011)
The deposit covers about 23,000 reagents; shown is a random part of those with a known target gene and a result. Of all reagents, 199 (0.86%) got an active call. 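Plate-scaled ratios behind the calls are not deposited; printed light signals are raw; many rows marked increased or decreased are still called inactive.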 Entries without a mark were called inactive. Names joined by + are all predicted targets of the reagent. Reagent sequences are not shown. Not stated in the record: the direction of the score.

Aim: 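Factors in Argonaute-based small RNA production and activity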 (primary screen)
Cells: Drosophila S2-derived reporter cells
Reagent: long dsRNA against Drosophila genes, about 150-250 ng dsRNA per well (siRNA assay); about 80-120 ng (miRNA assay)
Time to read-out: about 5 days (siRNA assay); about 4 days (miRNA assay)
Treatment: copper sulfate induction of reporters: 25 µM (siRNA assay); 200 mM stated (miRNA assay), 1-2 days before reading
Measured: 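Per-well ratio of Renilla over firefly light, expressed relative to that plate's average ratio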
Call rule: 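a well was a first-pass pick when its plate-scaled ratio rose above 1.5 (siRNA assay) or 1.6 (miRNA assay), or dropped below 0.6; a gene counted only if two separate dsRNAs agreed on retest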

| target | dsRNA | miRNA reporter change | stable assay Renilla, run 1 (luminescence) | stable assay firefly, run 1 (luminescence) |
| --- | --- | --- | --- | --- |
| CG8004 | DRSC10947 | – | 9230 | 3.24e5 |
| CG4982 | DRSC10465 | – | 4108 | 4.43e5 |
| CG43867 | DRSC17582 | – | 8219 | 3.23e5 |
| CG43867 | DRSC17836 | – | 6772 | 3.98e5 |
| CG43867 | DRSC17837 | – | 7691 | 4.21e5 |
| CG43867 | DRSC17943 | – | 6700 | 3.51e5 |
| in (inturned) | DRSC11888 | – | 6575 | 4.41e5 |
| CG17739 | DRSC06689 | – | 9079 | 5.20e5 |
| POSH (Plenty of SH3s) | DRSC07499 | – | 6114 | 3.21e5 |
| Acp36DE (Accessory gland protein 36DE) | DRSC01860 | – | 7383 | 4.08e5 |
| CG17839 | DRSC10290 | – | 8960 | 4.39e5 |
| CG17839 | DRSC10291 | reporter ratio lowered past the hit cutoff | 8159 | 4.24e5 |
| CG13962 | DRSC02304 | – | 7231 | 4.28e5 |
| CG5693 | DRSC02878 | – | 7671 | 5.05e5 |
| csul (capsuleen) | DRSC07599 | – | 7916 | 3.39e5 |
| CG16736 | DRSC15145 | – | 7464 | 3.99e5 |
| GC1 | DRSC15322 | – | 5978 | 3.83e5 |
| SoYb | DRSC02901 | – | 7390 | 4.45e5 |
| gcm2 | DRSC03538 | – | 7467 | 3.79e5 |
| SMC5 (Structural maintenance of chromosomes 5) | DRSC11849 | – | 9202 | 4.11e5 |
| knon (knotted onions) | DRSC07049 | – | 6682 | 3.62e5 |
| Cog2 (Component of oligomeric golgi complex 2) | DRSC16987 | – | 5994 | 3.46e5 |
| Exo70 (Exocyst 70) | DRSC10774 | – | 7338 | 4.12e5 |
| Gr59c (Gustatory receptor 59c) | DRSC04185 | – | 5520 | 3.02e5 |
| CG10051 | DRSC05959 | – | 6879 | 4.07e5 |
| sol (small optic lobes) | DRSC20587 | – | 5983 | 5.51e5 |
| Nubpl (NUBP iron-sulfur cluster assembly factor, mitochondrial) | DRSC03725 | – | 43790 | 3.17e5 |
| Nnk (Nicknack) | DRSC15274 | – | 7672 | 3.49e5 |
| Cht11 (Chitinase 11) | DRSC18270 | – | 5080 | 2.99e5 |
| CG17026 | DRSC10237 | – | 4299 | 3.80e5 |
| Lcp65Ag3 + Lcp65Ag2 + Lcp65Ag1 | DRSC11214 | – | 5719 | 4.63e5 |
| Lcp65Ag3 + Lcp65Ag2 + Lcp65Ag1 | DRSC11215 | – | 6408 | 4.20e5 |
| Nrt (Neurotactin) | DRSC11237 | – | 9272 | 4.05e5 |
| Alg1 (ALG1, chitobiosyldiphosphodolichol beta-mannosyltransferase) | DRSC15297 | – | 8263 | 3.42e5 |
| CG12170 | DRSC12199 | – | 4159 | 3.02e5 |
| CG34199 | DRSC05867 | – | 6099 | 4.83e5 |
| 14-3-3epsilon | DRSC16370 | – | 6775 | 2.98e5 |
| tay (tay bridge) | DRSC20142 | – | 6970 | 3.22e5 |
| CG34461 | DRSC10767 | – | 7468 | 5.21e5 |
| dsb (debris buster) | DRSC08407 | – | 4428 | 2.53e5 |
| dsb (debris buster) | DRSC08542 | – | 5335 | 3.29e5 |
| CG5646 | DRSC15853 | – | 8266 | 4.98e5 |
| Gr2a (Gustatory receptor 2a) | DRSC18603 | – | 7218 | 4.42e5 |
| Scgalpha (Sarcoglycan alpha) | DRSC03076 | – | 7673 | 4.55e5 |
| Crtp (Caldesmon-related protein) | DRSC04604 | – | 5479 | 3.49e5 |
| ArfGAP3 (ADP-ribosylation factor GTPase activating protein 3) | DRSC11794 | – | 10271 | 3.00e5 |
| CG6833 | DRSC10721 | – | 9117 | 3.32e5 |
| Golgin84 (Golgin-84) | DRSC15269 | – | 7615 | 3.65e5 |
| CG12688 (retired record) | DRSC17877 | – | 3220 | 3.26e5 |
| CG12688 (retired record) | DRSC17878 | – | 3916 | 3.60e5 |
| CG10804 | DRSC17764 | – | 7619 | 4.75e5 |
| Gprk1 (G protein-coupled receptor kinase 1) | DRSC20732 | – | 4200 | 2.66e5 |
| Gprk1 (G protein-coupled receptor kinase 1) | DRSC20916 | – | 6359 | 5.18e5 |
| CG8401 | DRSC07165 | – | 10064 | 4.04e5 |
| NT1 (Neurotrophin 1) | DRSC08530 | – | 6187 | 5.36e5 |
| NT1 (Neurotrophin 1) | DRSC22895 | – | 4140 | 3.72e5 |
| CG34398 | DRSC01052 | – | 5355 | 5.60e5 |
| CG34398 | DRSC02510 | – | 8647 | 5.50e5 |
| CG34398 | DRSC02511 | – | 7640 | 1.33e6 |
| CG34398 | DRSC03228 | – | 8278 | 5.38e5 |
| CG34398 | DRSC23293 | – | 3836 | 3.68e5 |

Copied from above, 7 entries:
| target | dsRNA | miRNA reporter change | stable assay Renilla, run 1 (luminescence) | stable assay firefly, run 1 (luminescence) |
| --- | --- | --- | --- | --- |
| ArfGAP3 (ADP-ribosylation factor GTPase activating protein 3) | DRSC11794 | – | 10271 | 3.00e5 |
| CG6833 | DRSC10721 | – | 9117 | 3.32e5 |
| Golgin84 (Golgin-84) | DRSC15269 | – | 7615 | 3.65e5 |
| CG12688 (retired record) | DRSC17877 | – | 3220 | 3.26e5 |
| CG12688 (retired record) | DRSC17878 | – | 3916 | 3.60e5 |
| CG10804 | DRSC17764 | – | 7619 | 4.75e5 |
| Gprk1 (G protein-coupled receptor kinase 1) | DRSC20732 | – | 4200 | 2.66e5 |
